Results are given in words; binding and its absence hold for the method and conditions named. In cells and extracts the contact can be indirect. A yes stands for co-enrichment or nearness to the bait. Other partners may have been found. For some assays here: No binding means not detected with the bait.
How the values were obtained:
[1] = target: T1, vascular endothelial (VE)-cadherin (human (endogenous in BLM, A375, MDA-MB-468, SKBR3)) (UniProt P33151); assay: affinity purification with mass spectrometry; 10 mg of BLM or MDA-MB-468 cell lysate immunoprecipitated with anti-VE-cadherin or control antibodies; SDS-PAGE, three slices, trypsin, nanoLC-MS/MS; contaminants filtered with CRAPome
T1 sequence: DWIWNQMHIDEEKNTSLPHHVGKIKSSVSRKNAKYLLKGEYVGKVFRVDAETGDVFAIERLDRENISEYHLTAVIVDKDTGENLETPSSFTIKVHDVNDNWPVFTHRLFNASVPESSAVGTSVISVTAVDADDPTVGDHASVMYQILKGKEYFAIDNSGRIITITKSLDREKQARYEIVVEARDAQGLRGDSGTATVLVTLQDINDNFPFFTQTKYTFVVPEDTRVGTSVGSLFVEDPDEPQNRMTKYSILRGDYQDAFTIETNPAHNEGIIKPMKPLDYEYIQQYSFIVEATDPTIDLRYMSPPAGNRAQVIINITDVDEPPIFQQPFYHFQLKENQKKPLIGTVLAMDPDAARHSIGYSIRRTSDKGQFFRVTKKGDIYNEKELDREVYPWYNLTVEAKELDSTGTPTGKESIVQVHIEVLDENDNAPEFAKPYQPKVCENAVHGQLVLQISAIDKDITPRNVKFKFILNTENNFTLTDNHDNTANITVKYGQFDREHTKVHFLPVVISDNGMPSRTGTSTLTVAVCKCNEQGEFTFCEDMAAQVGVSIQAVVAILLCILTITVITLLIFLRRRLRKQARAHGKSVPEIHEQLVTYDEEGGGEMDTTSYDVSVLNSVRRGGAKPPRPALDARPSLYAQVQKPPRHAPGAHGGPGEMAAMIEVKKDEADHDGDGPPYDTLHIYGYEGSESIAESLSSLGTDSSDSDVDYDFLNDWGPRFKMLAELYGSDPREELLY

[2] = target: T2, vascular endothelial (VE)-cadherin (human (endogenous in BLM, A375, MDA-MB-468, SKBR3)), P33151; assay: as above; details: remark: other sources report otherwise
T2 chain: T1 sequence

B1: p120-catenin (protein, UniProt O60716 1-968)
chain: MDDSEVESTASILASVKEQEAQFEKLTRALEEERRHVSAQLERVRVSPQDANPLMANGTLTRRHQNGRFVGDADLERQKFSDLKLNGPQDHSHLLYSTIPRMQEPGQIVETYTEEDPEGAMSVVSVETSDDGTTRRTETTVKKVVKTVTTRTVQPVAMGPDGLPVDASSVSNNYIQTLGRDFRKNGNGGPGPYVGQAGTATLPRNFHYPPDGYSRHYEDGYPGGSDNYGSLSRVTRIEERYRPSMEGYRAPSRQDVYGPQPQVRVGGSSVDLHRFHPEPYGLEDDQRSMGYDDLDYGMMSDYGTARRTGTPSDPRRRLRSYEDMIGEEVPSDQYYWAPLAQHERGSLASLDSLRKGGPPPPNWRQPELPEVIAMLGFRLDAVKSNAAAYLQHLCYRNDKVKTDVRKLKGIPVLVGLLDHPKKEVHLGACGALKNISFGRDQDNKIAIKNCDGVPALVRLLRKARDMDLTEVITGTLWNLSSHDSIKMEIVDHALHALTDEVIIPHSGWEREPNEDCKPRHIEWESVLTNTAGCLRNVSSERSEARRKLRECDGLVDALIFIVQAEIGQKDSDSKLVENCVCLLRNLSYQVHREIPQAERYQEAAPNVANNTGPHAASCFGAKKGKDEWFSRGKKPIEDPANDTVDFPKRTSPARGYELLFQPEVVRIYISLLKESKTPAILEASAGAIQNLCAGRWTYGRYIRSALRQEKALSAIADLLTNEHERVVKAASGALRNLAVDARNKELIGKHAIPNLVKNLPGGQQNSSWNFSEDTVISILNTINEVIAENLEAAKKLRETQGIEKLVLINKSGNRSEKEVRAAALVLQTIWGYKELRKPLEKEGWKKSDFQVNLNNASRSQSSHSYDDSTLPLIDRNQKSDKKPDREEIQMSNMGSNTKSLDNNYSTPNERGDHNRTLDRSGDLGDMEPLKGTTPLMQDEGQESLEEELDVLVLDDEGGQVSYPSMQKI
Question: B1 was tested. Which binding [1] did it give?
Answer: binds

B2: plakoglobin (protein, UniProt P14923 1-745)
chain: MEVMNLMEQPIKVTEWQQTYTYDSGIHSGANTCVPSVSSKGIMEEDEACGRQYTLKKTTTYTQGVPPSQGDLEYQMSTTARAKRVREAMCPGVSGEDSSLLLATQVEGQATNLQRLAEPSQLLKSAIVHLINYQDDAELATRALPELTKLLNDEDPVVVTKAAMIVNQLSKKEASRRALMGSPQLVAAVVRTMQNTSDLDTARCTTSILHNLSHHREGLLAIFKSGGIPALVRMLSSPVESVLFYAITTLHNLLLYQEGAKMAVRLADGLQKMVPLLNKNNPKFLAITTDCLQLLAYGNQESKLIILANGGPQALVQIMRNYSYEKLLWTTSRVLKVLSVCPSNKPAIVEAGGMQALGKHLTSNSPRLVQNCLWTLRNLSDVATKQEGLESVLKILVNQLSVDDVNVLTCATGTLSNLTCNNSKNKTLVTQNSGVEALIHAILRAGDKDDITEPAVCALRHLTSRHPEAEMAQNSVRLNYGIPAIVKLLNQPNQWPLVKATIGLIRNLALCPANHAPLQEAAVIPRLVQLLVKAHQDAQRHVAAGTQQPYTDGVRMEEIVEGCTGALHILARDPMNRMEIFRLNTIPLFVQLLYSSVENIQRVAAGVLCELAQDKEAADAIDAEGASAPLMELLHSRNEGTATYAAAVLFRISEDKNPDYRKRVSVELTNSLFKHDPAAWEAAQSMIPINEPYGDDMDATYRPMYSSDVPLDPLEMHMDMDGDYPIDTYSDGLRPPYPTADHMLA
Question: Which binding [1] does the source give for B2 here?
Answer: binds

B3: ALCAM (protein, UniProt Q13740 28-583)
chain: WYTVNSAYGDTIIIPCRLDVPQNLMFGKWKYEKPDGSPVFIAFRSSTKKSVQYDDVPEYKDRLNLSENYTLSISNARISDEKRFVCMLVTEDNVFEAPTIVKVFKQPSKPEIVSKALFLETEQLKKLGDCISEDSYPDGNITWYRNGKVLHPLEGAVVIIFKKEMDPVTQLYTMTSTLEYKTTKADIQMPFTCSVTYYGPSGQKTIHSEQAVFDIYYPTEQVTIQVLPPKNAIKEGDNITLKCLGNGNPPPEEFLFYLPGQPEGIRSSNTYTLTDVRRNATGDYKCSLIDKKSMIASTAITVHYLDLSLNPSGEVTRQIGDALPVSCTISASRNATVVWMKDNIRLRSSPSFSSLHYQDAGNYVCETALQEVEGLKKRESLTLIVEGKPQIKMTKKTDPSGLSKTIICHVEGFPKPAIQWTITGSGSVINQTEESPYINGRYYSKIIISPEENVTLTCTAENQLERTVNSLNVSAISIPEHDEADEISDENREKVNDQAKLIVGIVVGLLLAALVAGVVYWLYMKKSKTASKHVNKDLGNMEENKKLEENNHKTEA
Question: Which binding [1] does the source give for B3 here?
Answer: binds

B4: FAK, Q05397 1-1052 (enzyme)
chain: MAAAYLDPNLNHTPNSSTKTHLGTGMERSPGAMERVLKVFHYFESNSEPTTWASIIRHGDATDVRGIIQKIVDSHKVKHVACYGFRLSHLRSEEVHWLHVDMGVSSVREKYELAHPPEEWKYELRIRYLPKGFLNQFTEDKPTLNFFYQQVKSDYMLEIADQVDQEIALKLGCLEIRRSYWEMRGNALEKKSNYEVLEKDVGLKRFFPKSLLDSVKAKTLRKLIQQTFRQFANLNREESILKFFEILSPVYRFDKECFKCALGSSWIISVELAIGPEEGISYLTDKGCNPTHLADFTQVQTIQYSNSEDKDRKGMLQLKIAGAPEPLTVTAPSLTIAENMADLIDGYCRLVNGTSQSFIIRPQKEGERALPSIPKLANSEKQGMRTHAVSVSETDDYAEIIDEEDTYTMPSTRDYEIQRERIELGRCIGEGQFGDVHQGIYMSPENPALAVAIKTCKNCTSDSVREKFLQEALTMRQFDHPHIVKLIGVITENPVWIIMELCTLGELRSFLQVRKYSLDLASLILYAYQLSTALAYLESKRFVHRDIAARNVLVSSNDCVKLGDFGLSRYMEDSTYYKASKGKLPIKWMAPESINFRRFTSASDVWMFGVCMWEILMHGVKPFQGVKNNDVIGRIENGERLPMPPNCPPTLYSLMTKCWAYDPSRRPRFTELKAQLSTILEEEKAQQEERMRMESRRQATVSWDSGGSDEAPPKPSRPGYPSPRSSEGFYPSPQHMVQTNHYQVSGYPGSHGITAMAGSIYPGQASLLDQTDSWNHRPQEIAMWQPNVEDSTVLDLRGIGQVLPTHLMEERLIRQQQEMEEDQRWLEKEERFLKPDVRLSRGSIDREDGSLQGPIGNQHIYQPVGKPDPAAPPKKPPRPGAPGHLGSLASLSSPADSYNEGVKLQPQEISPPPTANLDRSNDKVYENVTGLVKAVIEMSSKIQPAPPEEYVPMVKEVGLALRTLLATVDETIPLLPASTHREIEMAQKLLNSDLGELINKMKLAQQYVMTSLQQEYKKQMLTAAHALAVDAKNLLDVIDQARLKMLGQTRPH
Question: How did the binding [2] turn out when B4 was run?
Answer: binds

B5: β-catenin, P35222 1-781 (protein)
chain: MATQADLMELDMAMEPDRKAAVSHWQQQSYLDSGIHSGATTTAPSLSGKGNPEEEDVDTSQVLYEWEQGFSQSFTQEQVADIDGQYAMTRAQRVRAAMFPETLDEGMQIPSTQFDAAHPTNVQRLAEPSQMLKHAVVNLINYQDDAELATRAIPELTKLLNDEDQVVVNKAAVMVHQLSKKEASRHAIMRSPQMVSAIVRTMQNTNDVETARCTAGTLHNLSHHREGLLAIFKSGGIPALVKMLGSPVDSVLFYAITTLHNLLLHQEGAKMAVRLAGGLQKMVALLNKTNVKFLAITTDCLQILAYGNQESKLIILASGGPQALVNIMRTYTYEKLLWTTSRVLKVLSVCSSNKPAIVEAGGMQALGLHLTDPSQRLVQNCLWTLRNLSDAATKQEGMEGLLGTLVQLLGSDDINVVTCAAGILSNLTCNNYKNKMMVCQVGGIEALVRTVLRAGDREDITEPAICALRHLTSRHQEAEMAQNAVRLHYGLPVVVKLLHPPSHWPLIKATVGLIRNLALCPANHAPLREQGAIPRLVQLLVRAHQDTQRRTSMGGTQQQFVEGVRMEEIVEGCTGALHILARDVHNRIVIRGLNTIPLFVQLLYSPIENIQRVAAGVLCELAQDKEAAEAIEAEGATAPLTELLHSRNEGVATYAAAVLFRMSEDKPQDYKKRLSVELTSSLFRTEPMAWNETADLGLDIGAQGEPLGYRQDDPSYRSFHSGGYGQDALGMDPMMEHEMGGHHPGADYPVDGLPDLGHAQDLMDGLPPGDSNQLAWFDTDL
Question: With B5 as the binder, how does the binding [2] read?
Answer: no binding

From paper PMC5352113
